PubChem BioAssay AID686943, Drosophila RNAi Screening Center – 2013
Screen: 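Search across the genome for regulators of signalling from receptor tyrosine kinase to ERK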 (primary screen). Cell system: Drosophila S2R+ haemocyte-like cells expressing YFP-tagged ERK (Rolled). Reagent: long dsRNA against Drosophila genes. Challenge: insulin stimulation versus unstimulated cells; dose and duration not given. Measured: 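Per-plate z-scores of phospho-ERK immunostaining normalised to YFP-tagged ERK, measured with and without insulin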. Direction: replicate 1, z-score of dpERK with insulin and replicate 2, z-score of dpERK with insulin: higher = more active ERK per ERK-YFP after insulin.
The screen tested about 23,000 reagents; shown is a random part of those with a known target gene and a result. 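Extra replicates exist only for a retested subset of genes; insulin dose and duration not given; both raised and lowered dpERK matter.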 Names joined by + are all predicted targets of the reagent. Further read-outs or replicates are left out here. Not stated in the record: the amount of reagent, the time to read-out.

After knock-down of Droj2 (GeneID 41646) [DRSC16450] the results were replicate 1, z-score of dpERK with insulin 2.27; replicate 2, z-score of dpERK with insulin 3.04.
With knock-down of Prosbeta6 (GeneID 39855) [DRSC11256], the record shows replicate 1, z-score of dpERK with insulin -1.21; replicate 2, z-score of dpERK with insulin -3.3.
CG12158 (GeneID 2768730) [DRSC22933] showed replicate 1, z-score of dpERK with insulin -0.79; replicate 2, z-score of dpERK with insulin -1.09.
Silencing of CG14711 + Zaf1 [DRSC14934] came out at: replicate 1, z-score of dpERK with insulin 1.88; replicate 2, z-score of dpERK with insulin 1.61.
For CG31125 (GeneID 318599) [DRSC13684], the values are replicate 1, z-score of dpERK with insulin 4.75; replicate 2, z-score of dpERK with insulin 1.38.
Knock-down of CG9759 (GeneID 41661) [DRSC16558] gave: replicate 1, z-score of dpERK with insulin 1.18; replicate 2, z-score of dpERK with insulin 0.72.
CG10822 (GeneID 37274) [DRSC06005] gave replicate 1, z-score of dpERK with insulin 0.34; replicate 2, z-score of dpERK with insulin -0.46.
Depletion of CNMa (GeneID 38242) [DRSC08405] resulted in: replicate 1, z-score of dpERK with insulin 1.28; replicate 2, z-score of dpERK with insulin 0.56.
Against Suv3 (GeneID 40543) [DRSC12335], the entry reads replicate 1, z-score of dpERK with insulin -0.38; replicate 2, z-score of dpERK with insulin -0.75.
For Sr-CII (GeneID 44219) [DRSC07557], the values are replicate 1, z-score of dpERK with insulin -0.13; replicate 2, z-score of dpERK with insulin 0.49.
Silencing of CG4456 + Hsp22 [DRSC11187] came out at: replicate 1, z-score of dpERK with insulin 0.17; replicate 2, z-score of dpERK with insulin 0.1.
CG4456 + Hsp22 [DRSC11192] showed replicate 1, z-score of dpERK with insulin 1.1; replicate 2, z-score of dpERK with insulin 1.14.
For CG9164 (GeneID 32467) [DRSC19087], the values are replicate 1, z-score of dpERK with insulin -0.19; replicate 2, z-score of dpERK with insulin 0.34.
With knock-down of CG9164 (GeneID 32467) [DRSC20162], the screen gave replicate 1, z-score of dpERK with insulin -0.22; replicate 2, z-score of dpERK with insulin 0.57.
With knock-down of Cyp4d14 (GeneID 45706) [DRSC18457] the results were replicate 1, z-score of dpERK with insulin -0.74; replicate 2, z-score of dpERK with insulin -0.01.
After knock-down of CG12316 (GeneID 39650) [DRSC09879], the screen gave replicate 1, z-score of dpERK with insulin 0.13; replicate 2, z-score of dpERK with insulin 0.73.
Silencing of slpr (GeneID 44111) [DRSC18225] came out at: replicate 1, z-score of dpERK with insulin 0.88; replicate 2, z-score of dpERK with insulin 0.54.
Depletion of CG2182 (GeneID 40697) [DRSC12308] resulted in: replicate 1, z-score of dpERK with insulin -0.11; replicate 2, z-score of dpERK with insulin -0.35.
With knock-down of Rpi (GeneID 246599) [DRSC04583], the record shows replicate 1, z-score of dpERK with insulin 0.59; replicate 2, z-score of dpERK with insulin -1.65.
Silencing of CG16719 (GeneID 39131) [DRSC10222] came out at: replicate 1, z-score of dpERK with insulin 0.04; replicate 2, z-score of dpERK with insulin 0.11.
Silencing of CG3823 (GeneID 31573) [DRSC18325] gave: replicate 1, z-score of dpERK with insulin 0.01; replicate 2, z-score of dpERK with insulin 0.49.

Reprinted from above for reference:
CG9164 (GeneID 32467) [DRSC20162] | replicate 1, z-score of dpERK with insulin = -0.22; replicate 2, z-score of dpERK with insulin = 0.57
Cyp4d14 (GeneID 45706) [DRSC18457] | replicate 1, z-score of dpERK with insulin = -0.74; replicate 2, z-score of dpERK with insulin = -0.01
CG12316 (GeneID 39650) [DRSC09879] | replicate 1, z-score of dpERK with insulin = 0.13; replicate 2, z-score of dpERK with insulin = 0.73
slpr (GeneID 44111) [DRSC18225] | replicate 1, z-score of dpERK with insulin = 0.88; replicate 2, z-score of dpERK with insulin = 0.54
CG2182 (GeneID 40697) [DRSC12308] | replicate 1, z-score of dpERK with insulin = -0.11; replicate 2, z-score of dpERK with insulin = -0.35

Next records follow:
For Nup58 (GeneID 42342) [DRSC16235], the values are replicate 1, z-score of dpERK with insulin -1.36; replicate 2, z-score of dpERK with insulin 1.07.
Silencing of Nepl12 (GeneID 41172) [DRSC16411] resulted in: replicate 1, z-score of dpERK with insulin -0.32; replicate 2, z-score of dpERK with insulin 0.3.
For CG4743 (GeneID 43101) [DRSC15636], the values are replicate 1, z-score of dpERK with insulin -0.36; replicate 2, z-score of dpERK with insulin -0.11.
eIF3g2 (GeneID 42422) [DRSC14275] showed replicate 1, z-score of dpERK with insulin -0.66; replicate 2, z-score of dpERK with insulin 0.58.
Knock-down of CG34276 (GeneID 41934) [DRSC15811] resulted in: replicate 1, z-score of dpERK with insulin 0.37; replicate 2, z-score of dpERK with insulin 0.59.
Silencing of CG17344 (GeneID 35185) [DRSC02607] gave: replicate 1, z-score of dpERK with insulin -0.19; replicate 2, z-score of dpERK with insulin -1.98.
After knock-down of CG8664 (GeneID 32719) [DRSC20116], the record shows replicate 1, z-score of dpERK with insulin 0.38; replicate 2, z-score of dpERK with insulin -0.33.
CG14625 (GeneID 31066) [DRSC18633] scored replicate 1, z-score of dpERK with insulin 0.32; replicate 2, z-score of dpERK with insulin 1.11.
Depletion of Cpr11B (GeneID 32203) [DRSC19859] gave: replicate 1, z-score of dpERK with insulin 0.47; replicate 2, z-score of dpERK with insulin 0.84.
Depletion of Fadd (GeneID 42594) [DRSC14122] gave: replicate 1, z-score of dpERK with insulin 0.05; replicate 2, z-score of dpERK with insulin 0.1.
With knock-down of Atf3 (GeneID 43867) [DRSC17225], the screen gave replicate 1, z-score of dpERK with insulin -2.22; replicate 2, z-score of dpERK with insulin -1.23.
CG15756 (GeneID 32308) [DRSC19721] gave replicate 1, z-score of dpERK with insulin -0.24; replicate 2, z-score of dpERK with insulin -0.08.
yellow-b (GeneID 35005) [DRSC03639] scored replicate 1, z-score of dpERK with insulin -0.56; replicate 2, z-score of dpERK with insulin -0.28.
sp3 (GeneID 42545) [DRSC16354] gave replicate 1, z-score of dpERK with insulin 0.47; replicate 2, z-score of dpERK with insulin -0.39.
CG9400 (GeneID 32385) [DRSC20182] showed replicate 1, z-score of dpERK with insulin -0.35; replicate 2, z-score of dpERK with insulin -0.25.
For CG15482 (GeneID 34717) [DRSC02492], the entry reads replicate 1, z-score of dpERK with insulin -1.27; replicate 2, z-score of dpERK with insulin 0.
Knock-down of CG30259 (GeneID 37606) [DRSC04164] gave: replicate 1, z-score of dpERK with insulin -0.85; replicate 2, z-score of dpERK with insulin 0.33.
Depletion of CG30259 (GeneID 37606) [DRSC04165] gave: replicate 1, z-score of dpERK with insulin -0.03; replicate 2, z-score of dpERK with insulin -0.46.
Against CG11122 (GeneID 32046) [DRSC19382], the values are replicate 1, z-score of dpERK with insulin 0.77; replicate 2, z-score of dpERK with insulin 0.24.
